The list shows only some results of the screen, not a fair sample: it gathers tests that were run many times, whatever their T/C, doses with no T/C, and many T/C values between a quarter and a half above the control. Other doses and runs of a compound stand elsewhere. T/C: endpoint of the treated group in % of that of the vehicle group. Schedules are NCI's codes, read here as Q, the interval in days (D) or hours (H), X, the number of doses. Some T/C values carry the count of animals alive at the toxicity check (mostly the fifth day); where none is given, no animal had died by that day. Some entries hold several experiments; the values are given in rising order. Some values lie below zero, which means that the treated tumours became smaller. Some doses have a count of surviving animals in place of a T/C: the source files T/C as zero there, which appears to mark a toxic dose or a test without result, not a measured value. Survivors were counted at the toxicity check, usually on the fifth day, unless a day is given; later deaths do not show.

Results on 9 compounds are retold here after PubChem BioAssay AID220 (DTP/NCI, 2004).

The test system of this assay is CD8F1 mice, subcutaneous mammary adenocarcinoma, T/C%. The assay can be described thus: NCI In Vivo Anticancer Drug Screen. Data for tumor model Mammary Adenocarcinoma CD8F1 (subcutaneous) in CD8F1. The settings on record: higher T/C = larger tumour. The procedure, abridged:
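Compound-treated versus vehicle-treated mice with transplantable tumors; survival or tumor size compared as T/C.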

In the case of `O=C(O[Si](Cc1ccccc1)(Cc1ccccc1)Cc1ccccc1)N(CCCl)CCCl`, the T/C was 154 % of control (T/C endpoint: median tumor weight change, dose: 125.0 mg/kg/injection, schedule: Q01DX001 (ip), vehicle: saline with Tween-80, evaluated on day 28); 66 % of control (T/C endpoint: median tumor weight change, dose: 125.0 mg/kg/injection, schedule: Q01DX001 (ip), vehicle: saline with Tween-80, evaluated on day 32); 121 % of control (T/C endpoint: median tumor weight change, dose: 125.0 mg/kg/injection, schedule: Q01DX001 (ip), vehicle: saline with Tween-80, evaluated on day 33); 132 % of control (T/C endpoint: median tumor weight change, dose: 125.0 mg/kg/injection, schedule: Q01DX001 (ip), vehicle: saline with Tween-80, evaluated on day 35); 116 % of control (T/C endpoint: median tumor weight change, dose: 250.0 mg/kg/injection, schedule: Q01DX001 (ip), vehicle: saline with Tween-80, evaluated on day 28); 77 % of control (T/C endpoint: median tumor weight change, dose: 250.0 mg/kg/injection, schedule: Q01DX001 (ip), vehicle: saline with Tween-80, evaluated on day 32). The T/C is 78 % of control (T/C endpoint: median tumor weight change, dose: 250.0 mg/kg/injection, schedule: Q01DX001 (ip), vehicle: saline with Tween-80, evaluated on day 33); 65 % of control (T/C endpoint: median tumor weight change, dose: 250.0 mg/kg/injection, schedule: Q01DX001 (ip), vehicle: saline with Tween-80, evaluated on day 35); 15 % of control (T/C endpoint: median tumor weight change, dose: 500.0 mg/kg/injection, schedule: Q01DX001 (ip), vehicle: saline with Tween-80, evaluated on day 28). Further, the survivor count is, setting by setting: (T/C endpoint: median tumor weight change, dose: 500.0 mg/kg/injection, schedule: Q01DX001 (ip), vehicle: saline with Tween-80) 1 of 10 on day 32, 2 of 10 on day 35, 5 of 10 on day 33; (T/C endpoint: median tumor weight change, dose: 1000.0 mg/kg/injection, schedule: Q01DX001 (ip), vehicle: saline with Tween-80) 0 of 10 on day 28, 0 of 10 on day 32, 0 of 10 on day 33, 0 of 10 on day 35.

In the case of `O=Cc1ccc(O)c(O)c1`, the T/C reads like this: (T/C endpoint: median tumor weight (est.), dose: 25.0 mg/kg/injection, schedule: Q07DX005 (ip), vehicle: suspension in saline, evaluated on day 30) 147 % of control [9 of 10 alive on day 30]; (T/C endpoint: median tumor weight (est.), dose: 50.0 mg/kg/injection, schedule: Q07DX005 (ip), vehicle: suspension in saline, evaluated on day 30) 131 % of control; (T/C endpoint: median tumor weight (est.), dose: 200.0 mg/kg/injection, schedule: Q07DX005 (ip), vehicle: suspension in saline, evaluated on day 30) 137 % of control [9 of 10 alive on day 30]. Further, the survivor count reads like this: (T/C endpoint: median tumor weight (est.), dose: 400.0 mg/kg/injection, schedule: Q07DX005 (ip), vehicle: suspension in saline) 6 of 10 on day 30; (T/C endpoint: median tumor weight (est.), dose: 800.0 mg/kg/injection, schedule: Q07DX005 (ip), vehicle: suspension in saline) 0 of 10 on day 30.

Consider `CCCCCNc1ncnc2c(C)[nH]nc12`, for which the survivor count is, setting by setting: (T/C endpoint: median tumor weight change, dose: 500.0 mg/kg/injection, schedule: Q01DX001 (ip), vehicle: Klucel (hydroxypropylcellulose) (HPC)) 1 of 10 on day 27; (T/C endpoint: median tumor weight change, dose: 1000.0 mg/kg/injection, schedule: Q01DX001 (ip), vehicle: Klucel (hydroxypropylcellulose) (HPC)) 0 of 10 on day 27.

Regarding `c1ccc2c(NCCCCCCNc3c4ccccc4nc4ccccc34)c3ccccc3nc2c1`, the T/C (T/C endpoint: median tumor weight (est.), dose: 10.0 mg/kg/injection, schedule: Q07DX005 (ip), vehicle: Klucel (hydroxypropylcellulose) (HPC), evaluated on day 30) was 145 % of control.

Regarding `O=C1C(NCCO)=C(N2CC2)C(=O)C(NCCO)=C1N1CC1`, the T/C by setting is: (T/C endpoint: median tumor weight change, dose: 0.63 mg/kg/injection, schedule: Q01DX001 (ip), vehicle: saline, evaluated on day 28) 140 % of control; (T/C endpoint: median tumor weight change, dose: 1.25 mg/kg/injection, schedule: Q01DX001 (ip), vehicle: saline, evaluated on day 28) 136 % of control. Besides, the survivor count (T/C endpoint: median tumor weight change, dose: 5.0 mg/kg/injection, schedule: Q01DX001 (ip), vehicle: saline) is 0 of 10 on day 32 and 4 of 10 on day 39; the survivor count (T/C endpoint: median tumor weight change, dose: 10.0 mg/kg/injection, schedule: Q01DX001 (ip), vehicle: saline) is 0 of 10 on day 32 and 0 of 10 on day 39.

For the compound `Cc1c(N)nc([C@H](CC(N)=O)NC[C@H](N)C(N)=O)nc1C(=O)N[C@H](C(=O)N[C@H](C)[C@@H](O)[C@H](C)C(=O)N[C@H](C(=O)NCCc1nc(-c2nc(C(=O)NCCC[S+](C)C)cs2)cs1)[C@@H](C)O)C(OC1OC(CO)C(O)C(O)C1OC1OC(CO)C(O)C(OC(N)=O)C1O)c1cnc[nH]1` (some centres undefined), the T/C (T/C endpoint: median tumor weight (est.), dose: 4.0 mg/kg/injection, schedule: Q07DX005 (ip), vehicle: saline, evaluated on day 30) was 16, 37 [9 of 10 alive on day 30], 58, 63 % of control; the T/C (T/C endpoint: median tumor weight (est.), dose: 4.0 mg/kg/injection, schedule: Q07DX006 (ip), vehicle: saline, evaluated on day 37) was 125 % of control; the T/C (T/C endpoint: median tumor weight (est.), dose: 8.0 mg/kg/injection, schedule: Q07DX005 (ip), vehicle: saline, evaluated on day 30) is recorded as 7, 20, 21, 43 % of control; the T/C (T/C endpoint: median tumor weight change, dose: 4.0 mg/kg/injection, schedule: Q01DX001 (ip), vehicle: saline, evaluated on day 28) was 138 % of control; the T/C (T/C endpoint: median tumor weight change, dose: 8.0 mg/kg/injection, schedule: Q01DX001 (ip), vehicle: saline, evaluated on day 28) was 77 and 121 % of control; the T/C (T/C endpoint: median tumor weight change, dose: 8.0 mg/kg/injection, schedule: Q01DX001 (ip), vehicle: saline, evaluated on day 32) is 44 % of control. In addition, the T/C was 102 % of control (T/C endpoint: median tumor weight change, dose: 8.0 mg/kg/injection, schedule: Q01DX001 (ip), vehicle: saline, evaluated on day 33); 43 and 97 % of control (T/C endpoint: median tumor weight change, dose: 16.0 mg/kg/injection, schedule: Q01DX001 (ip), vehicle: saline, evaluated on day 28); 16 % of control (T/C endpoint: median tumor weight change, dose: 16.0 mg/kg/injection, schedule: Q01DX001 (ip), vehicle: saline, evaluated on day 32); 62 % of control (T/C endpoint: median tumor weight change, dose: 16.0 mg/kg/injection, schedule: Q01DX001 (ip), vehicle: saline, evaluated on day 33); 66 % of control (T/C endpoint: median tumor weight change, dose: 32.0 mg/kg/injection, schedule: Q01DX001 (ip), vehicle: saline, evaluated on day 26); 28 and 89 % of control (T/C endpoint: median tumor weight change, dose: 32.0 mg/kg/injection, schedule: Q01DX001 (ip), vehicle: saline, evaluated on day 28). The T/C by setting is: (T/C endpoint: median tumor weight change, dose: 32.0 mg/kg/injection, schedule: Q01DX001 (ip), vehicle: saline, evaluated on day 32) 16 % of control; (T/C endpoint: median tumor weight change, dose: 32.0 mg/kg/injection, schedule: Q01DX001 (ip), vehicle: saline, evaluated on day 33) 33 % of control; (T/C endpoint: median tumor weight change, dose: 64.0 mg/kg/injection, schedule: Q01DX001 (ip), vehicle: saline, evaluated on day 26) 25 % of control [9 of 10 alive on day 26]; (T/C endpoint: median tumor weight change, dose: 64.0 mg/kg/injection, schedule: Q01DX001 (ip), vehicle: saline, evaluated on day 28) 2 and 33 % of control; (T/C endpoint: median tumor weight change, dose: 64.0 mg/kg/injection, schedule: Q01DX001 (ip), vehicle: saline, evaluated on day 33) 13 % of control [9 of 10 alive on day 33]; (T/C endpoint: median tumor weight change, dose: 128.0 mg/kg/injection, schedule: Q01DX001 (ip), vehicle: saline, evaluated on day 26) 9 % of control [9 of 10 alive on day 26]. For the same compound, the T/C is -27 [9 of 10 alive on day 28] and 1 % of control [9 of 10 alive on day 28] (T/C endpoint: median tumor weight change, dose: 128.0 mg/kg/injection, schedule: Q01DX001 (ip), vehicle: saline, evaluated on day 28); 53 % of control (T/C endpoint: median tumor weight change, dose: 128.0 mg/kg/injection, schedule: Q01DX001 (ip), vehicle: saline, evaluated on day 32). The survivor count (T/C endpoint: median tumor weight (est.), dose: 64.0 mg/kg/injection, schedule: Q07DX005 (ip), vehicle: saline) was 4 of 10 on day 30; the survivor count (T/C endpoint: median tumor weight (est.), dose: 128.0 mg/kg/injection, schedule: Q07DX005 (ip), vehicle: saline) is 0 of 10 on day 30; the survivor count (T/C endpoint: median tumor weight change, dose: 64.0 mg/kg/injection, schedule: Q01DX001 (ip), vehicle: saline) is on record as 6 of 10 on day 32; the survivor count (T/C endpoint: median tumor weight change, dose: 256.0 mg/kg/injection, schedule: Q01DX001 (ip), vehicle: saline) is 5 of 10 on day 26.

In the case of `Nc1cccc(=O)[nH]1`, the T/C reads like this: (T/C endpoint: median tumor weight (est.), dose: 100.0 mg/kg/injection, schedule: Q07DX005 (ip), vehicle: saline, evaluated on day 30) 143 % of control; (T/C endpoint: median tumor weight (est.), dose: 200.0 mg/kg/injection, schedule: Q07DX005 (ip), vehicle: saline, evaluated on day 30) 144 % of control. In addition, the survivor count (T/C endpoint: median tumor weight change, dose: 2000.0 mg/kg/injection, schedule: Q01DX001 (ip), vehicle: saline) is 0 of 10 on day 28.

As to `Cc1c(-c2ccc(-c3ccccc3F)cc2)nc2ccc(F)cc2c1C(=O)O`, the T/C (T/C endpoint: median tumor weight change, dose: 22.5 mg/kg/injection, schedule: Q01DX001 (ip), vehicle: water, evaluated on day 30) was 144 % of control. For the same compound, the survivor count is on record as 0 of 10 on day 32 (T/C endpoint: median tumor weight change, dose: 150.0 mg/kg/injection, schedule: Q01DX005 (ip), vehicle: water) and 1 of 10 on day 30 (T/C endpoint: median tumor weight change, dose: 180.0 mg/kg/injection, schedule: Q01DX001 (ip), vehicle: water).

In the case of `C/C=C/C1=CC(=O)C(O)C1O` (centres undefined), the survivor count (T/C endpoint: median tumor weight (est.), dose: 360.0 mg/kg/injection, schedule: Q07DX005 (ip), vehicle: water) is reported as 0 of 10 on day 30.
